Here are results for three compounds from patent publication US8067602B2, “Asymmetric cyanine fluorescent dyes, compositions and their use in staining biological samples” (Shenzhen Mindray Bio-Medical Electronics Co., Ltd., priority 2008, dated 2011).

In series [1] the test system is salmon sperm DNA. The series can be described thus: Fluorescence intensity of dye in PBS with salmon sperm DNA (excitation 633 nm). Format: binding. To be noted: room temperature. On the procedure: An amount of Dye-1 was accurately weighed and sufficiently dissolved in 2.5 mL methanol/ethylene glycol (50:50 vol/vol) to prepare a dye solution at a concentration of 5 mM. This solution was filtered before use. Separate amounts of salmon sperm DNA were weighed and dissolved in PBS to obtain PBS buffers containing 3 mg/mL, 1 mg/mL, 0.3 mg/mL, 0.1 mg/mL of DNA. 2-μL aliquots of the prepared 5 mM dye solution were accurately measured and respectively combined in 1 mL PBS with 1 μL of the PBS buffers containing different concentrations of DNA. After reacting for a period of time, the complexes were detected for their emission spectra at the selected excitation wavelength of 633 nm. The detection temperature was at room temperature. The instrument used was fluorescence spectrophotometer Model FL-4500.
FIG. 2 is a comparison of the relative fluorescence strength of Dye-1 in PBS before and after it is bound with DNA.
(§1) The detection procedures followed were those described in Example 10 and Example 11. The fluorescence spectra for the complexes of Dye-2 with different concentrations of DNA or RNA are shown in FIG. 5 and FIG. 6, respectively. The comparisons of fluorescence for Dye-2 before and after it is bound with DNA or with RNA in PBS are shown in FIG. 7 and FIG. 8, respectively.
The detection procedures followed were those described in Example 10 and Example 11. The comparisons of fluorescence for Dye-3 before and after it bound with DNA or with RNA in PBS are shown in FIG. 9 and FIG. 10, respectively.
Table 1 compares the ratios of increase in fluorescence for Dye-1, Dye-2 and Dye-3 after vs before they bound with salmon sperm DNA in PBS.

Series [2] concerns soft-shelled turtle (Trionyx sinensis) liver RNA. Kind of series: Fluorescence intensity of dye in PBS with soft-shelled turtle liver RNA (excitation 633 nm). Format: binding. To be noted: room temperature. On the procedure: An amount of Dye-1 was accurately weighed and sufficiently dissolved in 2.5 mL methanol/ethylene glycol (50:50 vol/vol) to prepare a dye solution at a concentration of 5 mM. This solution was filtered before use. Separate amounts of soft-shelled turtle (Trionyx sinensis) liver RNA were weighed and dissolved in PBS to obtain PBS buffers containing 30 μg/mL, 10 μg/mL, 3 μg/mL, 1 μg/mL of RNA. 2-μL aliquots of the prepared 5 mM dye solution were accurately measured and respectively combined in 1 mL PBS with 1 μL of the PBS buffers containing different concentrations of RNA. After reacting for a period of time, the complexes were detected for their emission spectra at the selected excitation wavelength of 633 nm. The detection temperature was at room temperature. The instrument used was fluorescence spectrophotometer Model FL-4500.
FIG. 4 is a comparison of the relative fluorescence strength of Dye-1 in PBS before and after it is bound with RNA. As can likewise be seen in the figure, when Dye-1 formed complexes with RNA, there occurred a rapid increase in fluorescence intensity accompanied by a certain degree of red shift of fluorescence, with the maximum […] peak at about 655 nm in the near-infrared region, which can avoid the interference from the background fluorescence of the organisms per se and therefore improve the accuracy of detection.
as §1
The detection procedures followed were those described in Example 10 and Example 11. The comparisons of fluorescence for Dye-3 before and after it bound with DNA or with RNA in PBS are shown in FIG. 9 and FIG. 10, respectively. […]

`CCOC(=O)CCCN1C=C/C(=C\C=C\c2sc3ccccc3[n+]2CCO)c2ccccc21.[Br-]` [Dye-2]: the “maximum excitation peak of dye/DNA complex” value in series [1] is listed as over 650 nm. Also, the “maximum excitation peak of dye/RNA complex” value in series [2] was over 650 nm.
As for `OCCN1C=C/C(=C\C=C\c2sc3ccccc3[n+]2CCOc2ccccc2)c2ccccc21.[Br-]` [Dye-3], in series [1], the “maximum excitation peak of dye/DNA complex” value was over 650 nm. Moreover, in series [2], the “maximum excitation peak of dye/RNA complex” value is recorded as over 650 nm.
Turning to `CCOC(=O)CCCCC[n+]1c(/C=C/C=C2\C=CN(Cc3ccccc3)c3ccccc32)sc2ccccc21.[Br-]` [Dye-1], the “maximum excitation peak of dye/DNA complex” value in series [1] is recorded as “about 654 nm”. Moreover, the “maximum excitation peak of dye/RNA complex” value in series [2] is listed as “about 655 nm”.
